According to patent US20080020421A1, “METHODS OF SCREENING AGENTS FOR CYTOTOXIC AND ANTIMICROBIAL ACTIVITY” (priority 2006, published 2008):
Some entries share one result that the patent states for a list of compounds. For some assays here: For at least one compound, name, drawing or mass did not settle the structure.

What was measured:
M. smegmatis = conditions: previous work, microbroth assay; cited from earlier work
M. avium = conditions: previous work, microbroth assay; cited from earlier work
M. tuberculosis = conditions: previous work, microbroth assay; cited from earlier work
HeLa-GFP cells = assay: HeLa-GFP fluorometric cytotoxicity assay; conditions: loss of GFP signal, Table 1 screen

Row | Structure (SMILES) | antimycobacterial activity against M. tuberculosis (in words) (M. tuberculosis) | toxicity to HeLa-GFP cells (in words) (HeLa-GFP cells) | further results
1 | O=C1C=CC(=O)c2c(O)ccc(O)c21 [Compound Q3, naphthazarin, reference compound] | significant antimycobacterial activity | – | antimycobacterial activity against M. smegmatis (in words) (M. smegmatis): significant antimycobacterial activity; antimycobacterial activity against M. avium (in words) (M. avium): significant antimycobacterial activity
2 | CCCC12OC1(CCC)C(=O)c1ccccc1C2=O (centres unmarked) [Compound Q26] | – | primarily toxic to the HeLa cells | –
3 | CCCCC12OC1C(=O)c1ccccc1C2=O (centres unmarked) [Compound Q24] | – | primarily toxic to the HeLa cells | –
4 | CCCC12OC1(CC)C(=O)c1ccccc1C2=O (centres unmarked) [Compound Q27] | – | primarily toxic to the HeLa cells | –
5 | CCCC1=C(CCC)C(=O)c2ccccc2C1=O [Compound Q8] | significant antimycobacterial activity | – | antimycobacterial activity against M. smegmatis (in words) (M. smegmatis): significant antimycobacterial activity
6 | CC1=CC(=O)c2c(O)cccc2C1=O [Compound Q1, plumbagin, reference compound] | significant antimycobacterial activity | – | –
7 | CCOC(=O)C12OC1(CC)C(=O)c1ccccc1C2=O (centres unmarked) [Compound Q28] | – | primarily toxic to the HeLa cells | –
8 | CC(C)=CCC1=C(O)C(=O)c2ccccc2C1=O [Compound Q4, lapachol, reference compound] | significant antimycobacterial activity | – | –
